In this assay the target is FLAG-tagged human signal regulatory protein α (SIRPA) (human) (UniProt P78324). Put plainly: co-IP.

Protein sequences, listed by entry. Tags and fused reporters are not part of them. Residues count along the entry.
UniProt P78324, residues 31-504: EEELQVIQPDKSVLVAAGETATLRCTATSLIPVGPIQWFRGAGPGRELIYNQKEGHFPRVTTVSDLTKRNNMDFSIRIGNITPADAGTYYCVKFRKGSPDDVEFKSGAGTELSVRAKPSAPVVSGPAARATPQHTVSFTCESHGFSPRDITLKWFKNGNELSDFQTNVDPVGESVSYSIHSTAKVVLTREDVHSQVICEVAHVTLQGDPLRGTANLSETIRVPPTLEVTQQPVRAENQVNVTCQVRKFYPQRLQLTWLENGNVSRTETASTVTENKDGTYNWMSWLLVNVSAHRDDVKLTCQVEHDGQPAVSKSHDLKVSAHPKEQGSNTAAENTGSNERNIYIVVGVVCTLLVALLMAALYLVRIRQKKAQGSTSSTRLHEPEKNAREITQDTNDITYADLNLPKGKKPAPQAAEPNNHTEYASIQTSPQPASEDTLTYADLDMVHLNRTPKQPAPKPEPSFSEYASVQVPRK

Results are given in words; binding and its absence hold for the method and conditions named. In cells and extracts the contact can be indirect. Some results given as binding are weak or reduced against the parent protein; the word gives no strength. Where a sequence is shown, tags or fusion partners need not be part of it.

B1: myc-tagged TRIM2 (full length) (protein, UniProt Q9ESN6 1-744)
chain: MASEGASIPSPVVRQIDKQFLICSICLERYKNPKVLPCLHTFCERCLQNYIPAHSLTLSCPVCRQTSILPEKGVAALQNNFFITNLMDVLQRTPGSNGEDSSILETVTAVAAGKPLSCPNHDGNVMEFYCQSCETAMCRECTEGEHAEHPTVPLKDVVEQHKASLQVQLDAVNKRLPEIDSALQFISEIIHQLTNQKASIVDDIHSTFDELQKTLNVRKSVLLMELEVNYGLKHKVLQSQLDTLLQGQESIKSCSNFTAQALNHGTETEVLLVKKQMSEKLNELADQDFPLHPRENDQLDFIVETEGLKKSIHNLGTILTTNAVASETVATGEGLRQTIIGQPMSVTITTKDKDGELCKTGNAYLTAELSTPDGSVADGEILDNKNGTYEFLYTVQKEGDFTLSLRLYDQHIRGSPFKLKVIRSADVSPTTEGVKRRVKSPGSGHVKQKAVKRPASMYSTGKRKENPIEDDLIFRVGTKGRNKGEFTNLQGVAASTSGKILIADSNNQCVQIFSNDGQFKSRFGIRGRSPGQLQRPTGVAVHPSGDIIIADYDNKWVSIFSNDGKFKTKIGSGKLMGPKGVSVDRNGHIIVVDNKACCVFIFQPNGKIVTRFGSRGNGDRQFAGPHFAAVNSNNEIIITDFHNHSVKVFNQEGEFMLKFGSNGEGNGQFNAPTGVAVDSNGNIIVADWGNSRIQVFDGSGSFLSYINTSADPLYGPQGLALTSDGHVVVADSGNHCFKVYRYLQ
B1: the binding result is reported as “binds”.

The values are drawn from article PMC6380604.
